No constants are given. Whether binding was seen depends on the method and setting. Some results given as binding are weak or reduced against the parent protein; the word gives no strength.
How the values were obtained:
[1] = target: cynomolgus CD38 antigen (cynomolgus) (UniProt Q5VAN0); assay: ELISA, coated cynomolgus CD38 antigen
[2] = target: cynomolgus CD38 antigen (cynomolgus) (UniProt Q5VAN0); assay: ELISA, coated CD38 antigen

Sequences of proteins named here, by UniProt entry; tags and fusion partners are left off. Residues count along the entry.
UniProt Q5VAN0, residues 43-301: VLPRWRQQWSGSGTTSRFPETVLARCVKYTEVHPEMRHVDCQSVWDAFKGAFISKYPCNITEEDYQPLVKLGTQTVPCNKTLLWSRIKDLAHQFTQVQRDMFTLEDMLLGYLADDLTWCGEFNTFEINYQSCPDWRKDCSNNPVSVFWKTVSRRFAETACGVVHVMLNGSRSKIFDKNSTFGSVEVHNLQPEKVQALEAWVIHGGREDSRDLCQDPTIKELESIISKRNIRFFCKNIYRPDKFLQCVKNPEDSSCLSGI

binding [1]: binds
binding [2]: binds
B1: H2 antibody (antibody, V domains shown)
VH: EVQLQESGAELVRSGASVKMSCKASGYTFTDYNVHWIKQTPGQGLEWIGYFYPRNGATHYNQKFTGKATLTADTSSSTAYIQISSLTSEDSAVYFCARGETPGTFPYWGQGTLVTVSA
VL: DIVLTQSPASLTVSLGQRATISCRASESVDNFGITFMHWYQQKPGQPPKLLIYRASNLESGIPARFSGSGSRTDFTLTIDPVETDDVATYYCQQSSKDPRTFGGGTKLEIK
